Source: patent US20140120095A1
Like-named read-outs stand apart in the source and are kept apart here. These are yes or no findings as the source states them, for the method shown. Some binding calls cover weakened binding; strength is not graded here.

Amino acid sequences for entries named in this document (tags omitted). A change or cut given only in a name is not applied to a line headed by its entry. Residues count along the entry.
UniProt Q9JI71, residues 27-686: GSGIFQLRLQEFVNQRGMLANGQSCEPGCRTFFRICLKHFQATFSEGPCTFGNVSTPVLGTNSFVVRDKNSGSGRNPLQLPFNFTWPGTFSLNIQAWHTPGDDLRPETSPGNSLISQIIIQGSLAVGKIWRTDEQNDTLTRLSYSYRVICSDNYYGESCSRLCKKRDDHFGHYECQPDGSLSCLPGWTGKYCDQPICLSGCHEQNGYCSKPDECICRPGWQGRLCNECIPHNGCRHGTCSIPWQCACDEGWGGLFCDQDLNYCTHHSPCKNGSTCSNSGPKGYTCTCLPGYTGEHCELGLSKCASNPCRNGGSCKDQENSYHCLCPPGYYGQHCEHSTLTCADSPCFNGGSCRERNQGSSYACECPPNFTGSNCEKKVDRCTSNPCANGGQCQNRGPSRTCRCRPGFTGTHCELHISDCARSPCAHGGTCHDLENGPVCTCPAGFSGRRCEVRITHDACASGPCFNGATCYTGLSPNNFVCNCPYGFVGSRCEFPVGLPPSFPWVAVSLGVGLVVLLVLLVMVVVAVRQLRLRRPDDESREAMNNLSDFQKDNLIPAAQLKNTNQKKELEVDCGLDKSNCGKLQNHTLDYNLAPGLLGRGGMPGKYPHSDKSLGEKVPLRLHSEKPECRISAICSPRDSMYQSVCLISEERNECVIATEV
UniProt P46531, residues 19-526: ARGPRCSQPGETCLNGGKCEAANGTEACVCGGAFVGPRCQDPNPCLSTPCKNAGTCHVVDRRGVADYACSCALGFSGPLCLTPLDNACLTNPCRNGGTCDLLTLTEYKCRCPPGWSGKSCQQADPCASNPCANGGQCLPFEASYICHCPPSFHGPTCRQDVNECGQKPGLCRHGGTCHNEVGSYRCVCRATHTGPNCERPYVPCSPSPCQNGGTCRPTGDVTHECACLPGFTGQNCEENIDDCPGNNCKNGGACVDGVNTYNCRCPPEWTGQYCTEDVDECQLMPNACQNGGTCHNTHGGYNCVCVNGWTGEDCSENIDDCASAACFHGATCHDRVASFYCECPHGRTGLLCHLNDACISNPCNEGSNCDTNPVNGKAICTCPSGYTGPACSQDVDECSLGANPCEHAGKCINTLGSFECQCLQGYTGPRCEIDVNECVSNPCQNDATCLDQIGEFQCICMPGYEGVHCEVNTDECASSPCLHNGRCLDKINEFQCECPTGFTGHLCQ

How the values were obtained:
[1] = target: mouse DLL4 expressed on CHO cells (mouse) (UniProt Q9JI71); assay: FMAT competition on CHO-mDLL4 cells; unlabelled rhNotch1-Fc competes with Alexa-647 labelled hNotch1-Fc
VEGFB [2] = target: T1, VEGFB (UniProt P49765); assay: binding ELISA on coated VEGFB (Example 12.8), receptor positive control, OD 450 nm
T1 sequence (looked up): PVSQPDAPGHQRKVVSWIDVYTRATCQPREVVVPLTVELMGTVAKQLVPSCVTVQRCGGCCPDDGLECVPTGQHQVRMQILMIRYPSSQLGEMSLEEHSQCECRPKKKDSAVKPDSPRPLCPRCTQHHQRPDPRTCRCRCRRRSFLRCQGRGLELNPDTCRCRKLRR

PIGF [3] = target: T2, PIGF (UniProt P49763); assay: binding ELISA on coated PIGF (Example 12.8), receptor positive control, OD 450 nm
T2 sequence (looked up): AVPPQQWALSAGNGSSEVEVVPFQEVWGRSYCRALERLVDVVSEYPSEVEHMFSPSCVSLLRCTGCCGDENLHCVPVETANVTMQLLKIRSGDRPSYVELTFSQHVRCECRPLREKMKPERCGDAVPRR

VEGFB [4] = target: T1, VEGFB; assay: binding ELISA on coated VEGFB (Example 12.8), receptor positive control, OD 450 nm; remark: listed apart in the source
PIGF [5] = target: T2, PIGF; assay: solid phase binding ELISA on coated PIGF (Example 12.8), receptor as positive control

binding [1]	binding (VEGFB [2])	binding (PIGF [3])	binding (VEGFB [4])	binding (PIGF [5])	Substance
binds					human Notch1/Fc chimera (R&D Systems) (from UniProt P46531 19-526) (Fc fusion)
	binds	binds	binds	binds	human VEGFR1-Fc chimera (from UniProt P17948 27-687) (Fc fusion)
